Drawing on publication PMC4507767, this text covers binding for 2 molecules.

The target of the test is T1, OsHrd3-FLAG (rice) (UniProt Q10NT7).
T1 sequence: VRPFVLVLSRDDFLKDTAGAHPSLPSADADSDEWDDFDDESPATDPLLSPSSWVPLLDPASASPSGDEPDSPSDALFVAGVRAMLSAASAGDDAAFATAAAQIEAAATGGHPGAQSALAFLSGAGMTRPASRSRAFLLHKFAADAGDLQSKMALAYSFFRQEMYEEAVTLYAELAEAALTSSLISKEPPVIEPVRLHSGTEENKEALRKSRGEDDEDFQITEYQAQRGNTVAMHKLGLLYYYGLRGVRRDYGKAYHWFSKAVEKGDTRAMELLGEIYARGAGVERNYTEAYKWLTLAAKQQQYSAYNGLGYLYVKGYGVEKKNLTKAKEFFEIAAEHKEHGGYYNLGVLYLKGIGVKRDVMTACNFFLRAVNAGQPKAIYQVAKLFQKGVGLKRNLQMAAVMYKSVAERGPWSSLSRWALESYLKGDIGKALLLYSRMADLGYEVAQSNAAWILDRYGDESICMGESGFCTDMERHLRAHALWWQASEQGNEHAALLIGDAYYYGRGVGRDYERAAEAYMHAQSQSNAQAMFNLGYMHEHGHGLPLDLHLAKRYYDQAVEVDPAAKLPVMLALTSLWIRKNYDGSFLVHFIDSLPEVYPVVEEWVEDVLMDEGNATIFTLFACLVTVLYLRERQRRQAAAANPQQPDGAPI
Briefly: co-IP; rice protoplasts transfected with OsHrd3-FLAG together with OsHrd1-HA or OsOS-9-HA; extraction buffer with 1% digitonin; immunoprecipitation with anti-FLAG M2 magnetic beads; immunoblot with anti-FLAG-HRP and anti-HA-HRP.

Results are given in words; binding and its absence hold for the method and conditions named. Binding seen in cells or lysates may run through a third protein. Some results given as binding are weak or reduced against the parent protein; the word gives no strength. Sequences can lack the tags named with a protein.

B1: OsHrd1-HA (protein, UniProt Q5Z880 1-500)
chain: MIRLQTYAAFSLMATATAVYYAFSSREQFYPAMVYLSTSKICFVLLLNTGLVAMCVAWQLVKRLFLGTLREAEVERLNEQAWREVVEILFAVTIFRQDFSVSFLAMVAALLLVKALHWLAQKRVEYIETTPSVPMLSHARIVSFMLFLLVVDCLFLSNSLRSLIHKREASVAIFFSFEYMILATSTVSTFVKYIFYVSDMLMEGQWEKKAVYTFYLELISDLVHLSLYMLFFIAIFLNYGVPLHLIRELYETFRNFRIRIADYVRYRKITSNMNERFPDATADELNASDATCIICREEMTTAKKLLCGHLFHVHCLRSWLERQHTCPTCRAPILPPDNGRTAARPHGVHPGVQPVPGNGTPGSERAAGENISRRQAKLEAAASAASLYGRSFAYPPANNLNRYSTPPQSTSNGPQSGEASTSNQSPKGHATADPSAPTFYARGAVSSVTTTRELESSLQKAYENAIKSQIEMLQIQLQMFQHGATSSATNNENGEHTKSD
Consider B1, for which the binding result was “binds”.

B2: OsOS-9-HA (protein, UniProt Q67WM9 26-298)
chain: ADQIFTSSGAPFGRNSREPRYHVEFHPVDAPFNPENGQESVPMTSHVGKHYTCFLPVEETKTMKSIIPQNATNVIIESERRVKPKDPDELLEILKDQCFYRHEGWWSYEFCYYGKIRQVHVEGEKVIQEYVLGEYDADATDAYYENQTSDSADEDDNLIDTSKRYHVHLYTNGTVCDLTDMPRETEVRFVCSEPTVVISSIKEISSCKYVLTVQSPMLCKNPLFQQEKRTLSIHCNELLAEAEATVDDDSLPKEAQIIIPDPDGLHNYAAYAT
For the molecule B2, the binding result is recorded as “binds”.
